Some of the results follow. The data scatter; read single values as rough.
These targets were tested with ClCC(=O)N[C@H]1CCCc2ccccc12 (assay: log2 mean competition ratio of IA-DTB cysteine labelling (DMSO/compound) (log2 ratio); higher = stronger cysteine engagement by compound). Conditions: 200 µM; treatment time: 4 h; cell line lysate: HEK293T.
Description: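 IA-DTB competitive cysteine chemoproteomics in HEK293T RIPA lysate. Lysates were treated with compound 29 or 30 at 50 or 200 µM for 4 h, then IA-DTB (500 µM, 1 h), trypsin-digested, NeutrAvidin-enriched and analysed by diaPASEF. Competition ratio = intensity DMSO / intensity compound (n=4 treated, n=64 DMSO); binding: mean log2 CR ≥ 1 and p ≤ 0.05 plus QC filters. Target is the cysteine site.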

Amino acid sequences for entries named in this document (tags omitted). A change or cut given only in a name is not applied to a line headed by its entry. Residues count along the entry.
UniProt Q4G0N4: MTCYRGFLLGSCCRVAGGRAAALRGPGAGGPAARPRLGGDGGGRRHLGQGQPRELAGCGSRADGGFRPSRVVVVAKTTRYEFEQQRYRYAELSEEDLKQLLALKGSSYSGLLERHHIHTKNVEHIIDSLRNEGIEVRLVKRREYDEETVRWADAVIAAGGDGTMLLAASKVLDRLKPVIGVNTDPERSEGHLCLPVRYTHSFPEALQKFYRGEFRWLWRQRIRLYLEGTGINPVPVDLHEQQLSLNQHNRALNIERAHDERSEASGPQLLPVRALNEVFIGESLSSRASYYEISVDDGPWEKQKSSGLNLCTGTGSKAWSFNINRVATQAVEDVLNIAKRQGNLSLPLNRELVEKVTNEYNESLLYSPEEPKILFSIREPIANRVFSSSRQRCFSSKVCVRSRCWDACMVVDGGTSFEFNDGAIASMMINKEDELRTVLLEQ
UniProt Q68DK7, 52-77: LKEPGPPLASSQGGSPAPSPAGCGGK
UniProt Q99707: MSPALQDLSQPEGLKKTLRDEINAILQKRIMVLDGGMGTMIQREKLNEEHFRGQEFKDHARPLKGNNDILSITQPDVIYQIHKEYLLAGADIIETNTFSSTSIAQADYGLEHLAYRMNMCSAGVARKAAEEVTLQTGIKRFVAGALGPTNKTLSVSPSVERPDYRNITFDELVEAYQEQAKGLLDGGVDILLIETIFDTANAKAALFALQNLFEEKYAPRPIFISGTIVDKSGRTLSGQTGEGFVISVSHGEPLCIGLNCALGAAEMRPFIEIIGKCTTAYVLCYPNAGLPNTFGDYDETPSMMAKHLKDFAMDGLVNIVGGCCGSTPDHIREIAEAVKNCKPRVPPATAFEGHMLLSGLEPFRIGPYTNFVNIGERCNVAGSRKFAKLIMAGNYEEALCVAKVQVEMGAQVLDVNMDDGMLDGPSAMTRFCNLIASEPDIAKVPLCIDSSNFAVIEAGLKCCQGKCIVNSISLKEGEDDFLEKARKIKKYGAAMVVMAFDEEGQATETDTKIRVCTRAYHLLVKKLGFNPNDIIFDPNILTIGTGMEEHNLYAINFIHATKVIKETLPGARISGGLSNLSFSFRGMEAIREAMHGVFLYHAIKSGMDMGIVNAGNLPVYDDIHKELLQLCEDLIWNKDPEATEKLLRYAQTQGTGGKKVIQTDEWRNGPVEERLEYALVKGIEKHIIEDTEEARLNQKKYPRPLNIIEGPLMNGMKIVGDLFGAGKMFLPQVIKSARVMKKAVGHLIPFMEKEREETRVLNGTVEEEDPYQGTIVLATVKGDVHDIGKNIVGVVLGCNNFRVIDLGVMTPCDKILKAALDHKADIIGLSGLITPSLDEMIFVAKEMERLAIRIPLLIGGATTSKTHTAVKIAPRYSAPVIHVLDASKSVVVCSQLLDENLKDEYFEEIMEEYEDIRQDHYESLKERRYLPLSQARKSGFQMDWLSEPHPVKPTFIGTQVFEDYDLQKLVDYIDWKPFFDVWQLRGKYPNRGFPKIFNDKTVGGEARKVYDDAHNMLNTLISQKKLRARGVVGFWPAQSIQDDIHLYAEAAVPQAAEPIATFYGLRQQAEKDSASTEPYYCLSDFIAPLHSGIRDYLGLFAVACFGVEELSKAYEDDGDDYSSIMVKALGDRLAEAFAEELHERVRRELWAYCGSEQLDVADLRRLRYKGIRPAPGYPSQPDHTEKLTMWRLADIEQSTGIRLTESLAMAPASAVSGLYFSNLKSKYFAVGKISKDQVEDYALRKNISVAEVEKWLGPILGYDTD
UniProt Q9BQG0: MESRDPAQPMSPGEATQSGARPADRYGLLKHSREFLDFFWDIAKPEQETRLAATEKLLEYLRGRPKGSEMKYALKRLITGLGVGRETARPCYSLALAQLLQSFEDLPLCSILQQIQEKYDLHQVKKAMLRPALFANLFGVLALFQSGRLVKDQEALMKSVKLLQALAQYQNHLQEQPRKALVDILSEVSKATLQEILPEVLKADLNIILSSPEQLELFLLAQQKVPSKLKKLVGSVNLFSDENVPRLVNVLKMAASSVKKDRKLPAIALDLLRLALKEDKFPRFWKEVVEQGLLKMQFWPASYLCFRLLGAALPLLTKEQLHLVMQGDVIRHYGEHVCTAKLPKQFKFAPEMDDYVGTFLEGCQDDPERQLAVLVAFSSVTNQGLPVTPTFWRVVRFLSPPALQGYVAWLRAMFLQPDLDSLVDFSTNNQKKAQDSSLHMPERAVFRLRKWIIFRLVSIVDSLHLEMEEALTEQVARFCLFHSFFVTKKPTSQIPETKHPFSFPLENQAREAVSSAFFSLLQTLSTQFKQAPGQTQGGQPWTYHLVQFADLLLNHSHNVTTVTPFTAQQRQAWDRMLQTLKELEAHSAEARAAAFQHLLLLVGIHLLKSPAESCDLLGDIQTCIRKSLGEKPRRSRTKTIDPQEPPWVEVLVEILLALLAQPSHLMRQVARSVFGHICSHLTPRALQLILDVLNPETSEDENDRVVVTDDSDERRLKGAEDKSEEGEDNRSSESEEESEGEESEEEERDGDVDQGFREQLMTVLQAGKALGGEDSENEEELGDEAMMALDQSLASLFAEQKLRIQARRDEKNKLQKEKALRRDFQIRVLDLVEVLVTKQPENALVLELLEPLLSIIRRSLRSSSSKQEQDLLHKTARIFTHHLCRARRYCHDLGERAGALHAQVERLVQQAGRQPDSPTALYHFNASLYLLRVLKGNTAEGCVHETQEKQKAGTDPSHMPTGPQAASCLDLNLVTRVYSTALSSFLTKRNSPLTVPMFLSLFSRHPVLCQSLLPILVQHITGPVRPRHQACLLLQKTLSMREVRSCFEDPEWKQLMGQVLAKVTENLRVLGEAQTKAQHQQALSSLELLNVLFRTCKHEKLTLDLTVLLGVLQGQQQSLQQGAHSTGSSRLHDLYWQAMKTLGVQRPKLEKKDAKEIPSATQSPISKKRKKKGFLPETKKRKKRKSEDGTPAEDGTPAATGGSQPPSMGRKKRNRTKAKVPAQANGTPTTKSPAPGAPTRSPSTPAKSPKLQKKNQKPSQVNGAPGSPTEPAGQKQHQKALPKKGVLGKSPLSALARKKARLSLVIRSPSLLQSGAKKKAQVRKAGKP
UniProt O75570: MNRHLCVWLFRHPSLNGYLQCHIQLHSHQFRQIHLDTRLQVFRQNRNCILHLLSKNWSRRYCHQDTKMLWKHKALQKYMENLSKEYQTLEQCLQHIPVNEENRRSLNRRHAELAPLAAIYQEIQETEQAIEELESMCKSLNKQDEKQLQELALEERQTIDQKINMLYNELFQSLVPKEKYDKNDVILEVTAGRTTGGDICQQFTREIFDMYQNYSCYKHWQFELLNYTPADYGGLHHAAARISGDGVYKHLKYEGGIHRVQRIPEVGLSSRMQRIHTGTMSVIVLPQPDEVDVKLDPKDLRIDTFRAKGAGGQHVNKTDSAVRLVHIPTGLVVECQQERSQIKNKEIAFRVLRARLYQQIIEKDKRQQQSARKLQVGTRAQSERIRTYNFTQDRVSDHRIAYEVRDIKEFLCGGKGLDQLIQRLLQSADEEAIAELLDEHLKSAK

Target	log2 mean competition ratio
MTHFD1L C198	0.11
NADK2 C193 (UniProt Q4G0N4)	-0.0595
MRPS2 C162 (UniProt Q9Y399)	-0.1
MRPL38 C252 (UniProt Q96DV4)	-0.133
MSL1 C74 (UniProt Q68DK7)	0.0436
MYL6 C32	0.176
MTR C432 (UniProt Q99707)	0.325
MTMR1 C12 (UniProt Q13613)	-0.271
MYBBP1A_(C614,C614,C623,C623) (UniProt Q9BQG0)	-0.0493
MTRF1 C335 (UniProt O75570)	0.19
MRPS18A C108 (UniProt Q9NVS2)	0.0225

— the supplement of paper PMC11732987, “Enantioselective OTUD7B fragment discovery through chemoproteomics screening and high-throughput optimisation” (Communications Chemistry, 2025)
